Assay results reported in the supplement of paper PMC12282887.
Values are raw readings; no control value is given beside them.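 Maximum concentrations were near the MIC for antimicrobials, 500 µM for most other compounds, and as high as 1 mM for known inducer-like compounds. Deletion strains began with a tenfold smaller inoculum, and wells with growth under 10% of the overall median counted as non-growing.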

Test system: Escherichia coli BW25113
Assay: growth (OD600 area under curve, 8 h) (OD600 x h); higher = more growth
Method: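 E. coli BW25113 reporter strains (wild type, ΔmarA, ΔsoxS, Δrob, each carrying one of 8 lux reporter plasmids) were grown in 40 µl LB in 384-well plates at 37°C, 800 rpm, with each compound at 4 two-fold concentrations, in biological duplicates. Growth is the baseline-corrected OD600 area under the curve over 8 h (0-8 h WT, 1-9 h deletion strains).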

C[C@]12CC[C@@H]3c4ccc(O)cc4CC[C@H]3[C@@H]1CC[C@@H]2O [Estradiol]
growth
Conditions | reporter plasmid: EVC | reporter plasmid: acrABp | reporter plasmid: marRABp | reporter plasmid: micFp | reporter plasmid: ompFp | reporter plasmid: robp | reporter plasmid: soxSp | reporter plasmid: tolCp
17 µg/ml, genetic background: wild type | 3.16 | 2.89 | 3.325 | 3.37 | 3.06 | 3.42 | 3.11 | 3.24
17 µg/ml, genetic background: ΔmarA | 3.51 | 4.19 | 3.92 | 3.2 | 3.71 | 3.94 | 3.12 | 3.2
17 µg/ml, genetic background: Δrob | 2.72 | 3.23 | 3.51 | 3.33 | 2.79 | 3.07 | 3.14 | 3.46
17 µg/ml, genetic background: ΔsoxS | 3.18 | 3.3 | 3.35 | 2.84 | 3.69 | 3.35 | 3.31 | 3.19
34 µg/ml, genetic background: wild type | 3.04 | 2.77 | 3.319 | 3.28 | 3.23 | 3.167 | 3.222 | 3.215
34 µg/ml, genetic background: ΔmarA | 3.34 | 4.78 | 4.114 | 3.24 | 3.55 | 3.88 | 3 | 3.12
34 µg/ml, genetic background: Δrob | 2.83 | 2.93 | 3.58 | 3.21 | 2.87 | 2.86 | 2.95 | 3.34
34 µg/ml, genetic background: ΔsoxS | 3.13 | 3.13 | 3.27 | 2.51 | 3.59 | 3.07 | 3.05 | 3.17
68.1 µg/ml, genetic background: wild type | 3.15 | 2.89 | 3.42 | 3.13 | 3.32 | 3.66 | 3.23 | 3.34
68.1 µg/ml, genetic background: ΔmarA | 3.58 | 4.39 | 4 | 3.3 | 3.448 | 4.16 | 2.88 | 3.33
68.1 µg/ml, genetic background: Δrob | 2.58 | 3.16 | 3.4 | 3.17 | 2.74 | 2.95 | 2.82 | 3.07
68.1 µg/ml, genetic background: ΔsoxS | 3.135 | 3.22 | 3.47 | 2.43 | 3.04 | 3.18 | 2.86 | 2.93
136.2 µg/ml, genetic background: wild type | 2.87 | 2.72 | 3.31 | 3.1 | 3.08 | 3.31 | 3.13 | 2.98
136.2 µg/ml, genetic background: ΔmarA | 3.3 | 4.48 | 4.14 | 3.32 | 3.69 | 4.18 | 3.03 | 2.97
136.2 µg/ml, genetic background: Δrob | 2.56 | 2.8 | 3.65 | 3.07 | 2.58 | 2.81 | 2.62 | 2.96
136.2 µg/ml, genetic background: ΔsoxS | 3.31 | 2.92 | 2.83 | 2.47 | 2.8 | 3.09 | 3.16 | 3.11

C[C@H]1COc2c(N3CCN(C)CC3)c(F)cc3c(=O)c(C(=O)O)cn1c23 [Levofloxacin]
growth
Conditions | reporter plasmid: EVC | reporter plasmid: acrABp | reporter plasmid: marRABp | reporter plasmid: micFp | reporter plasmid: ompFp | reporter plasmid: robp | reporter plasmid: soxSp | reporter plasmid: tolCp
0.0045 µg/ml, genetic background: wild type | 2.73 | 2.55 | 2.82 | 3.09 | 2.79 | 2.73 | 2.973 | 2.74
0.0045 µg/ml, genetic background: ΔmarA | 2.76 | 3.41 | 2.59 | 2.91 | 3.09 | 2.95 | 2.88 | 2.23
0.0045 µg/ml, genetic background: Δrob | 2.36 | 2.25 | 2.82 | 2.33 | 1.78 | 1.97 | 2.72 | 2.54
0.0045 µg/ml, genetic background: ΔsoxS | 2.89 | 3.13 | 2.92 | 2.55 | 2.47 | 2.84 | 2.97 | 2.74
0.009 µg/ml, genetic background: wild type | 2.263 | 1.89 | 1.94 | 2.3 | 1.93 | 1.34 | 2.67 | 2.002
0.009 µg/ml, genetic background: ΔmarA | 1.25 | 0.9476 | 0.152 | 1.59 | 1.12 | 0.808 | 2.61 | 0.356
0.009 µg/ml, genetic background: Δrob | 0.813 | 0.224 | 0.691 | 0.591 | -0.0218 | 0.255 | 2.4 | 0.851
0.009 µg/ml, genetic background: ΔsoxS | 2.05 | 1.91 | 1.69 | 1.756 | 1.47 | 1.26 | 1.82 | 1.495
0.018 µg/ml, genetic background: wild type | 0.39 | -0.208 | 0.194 | 0.549 | 0.132 | 0.177 | 1.63 | 0.28
0.018 µg/ml, genetic background: ΔmarA | -0.0627 | -0.16 | -0.0173 | 0.0349 | -0.00361 | -0.0179 | 1.67 | 0.0115
0.018 µg/ml, genetic background: Δrob | -0.281 | -0.166 | 0.0362 | -0.0324 | -0.0842 | -0.0348 | 1.2 | 0.0226
0.018 µg/ml, genetic background: ΔsoxS | 0.297 | 0.107 | 0.0968 | 0.0435 | 0.0152 | -0.0112 | 0.0652 | -0.029
0.036 µg/ml, genetic background: wild type | 0.154 | -0.253 | 0.11 | 0.155 | 0.1 | 0.163 | 0.219 | 0.145
0.036 µg/ml, genetic background: ΔmarA | -0.0581 | -0.165 | 0.0147 | 0.0306 | 0.0323 | -0.0177 | 0.0248 | 0.0469
0.036 µg/ml, genetic background: Δrob | -0.301 | -0.0984 | 0.0266 | -0.0576 | -0.118 | 0.0112 | 0.0997 | -0.0207
0.036 µg/ml, genetic background: ΔsoxS | -0.018 | -0.00541 | 0.119 | -0.0362 | -0.0313 | -0.0121 | 0.0311 | 0.0243

CC1(C)S[C@@H]2[C@H](/N=C/N3CCCCCC3)C(=O)N2[C@H]1C(=O)O [Mecillinam]
growth
Conditions | reporter plasmid: EVC | reporter plasmid: acrABp | reporter plasmid: marRABp | reporter plasmid: micFp | reporter plasmid: ompFp | reporter plasmid: robp | reporter plasmid: soxSp | reporter plasmid: tolCp
0.0081 µg/ml, genetic background: wild type | 3.07 | 3 | 3.11 | 3.08 | 2.9 | 3.19 | 2.96 | 2.92
0.0081 µg/ml, genetic background: ΔmarA | 3.13 | 4.02 | 3.47 | 2.94 | 3.36 | 3.28 | 2.96 | 2.88
0.0081 µg/ml, genetic background: Δrob | 2.93 | 3.357 | 3.12 | 3.2 | 2.44 | 2.831 | 3.03 | 3.34
0.0081 µg/ml, genetic background: ΔsoxS | 3.02 | 3.26 | 3.37 | 2.94 | 3.25 | 3.36 | 3.3 | 3.13
0.016 µg/ml, genetic background: wild type | 2.79 | 2.46 | 2.68 | 2.81 | 2.8 | 2.87 | 2.86 | 2.64
0.016 µg/ml, genetic background: ΔmarA | 2.68 | 3.05 | 2.81 | 2.51 | 2.69 | 2.98 | 2.65 | 2.59
0.016 µg/ml, genetic background: Δrob | 2.36 | 2.64 | 2.6 | 2.69 | 2 | 2.31 | 2.89 | 2.48
0.016 µg/ml, genetic background: ΔsoxS | 2.65 | 2.69 | 3.08 | 2.46 | 2.76 | 3.08 | 2.83 | 2.81
0.033 µg/ml, genetic background: wild type | 1.92 | 1.37 | 1.45 | 1.71 | 1.71 | 1.62 | 2.5 | 1.4
0.033 µg/ml, genetic background: ΔmarA | 0.996 | 0.891 | 1.01 | 1.62 | 1.29 | 1.474 | 2.71 | 0.95
0.033 µg/ml, genetic background: Δrob | 1.35 | 1.01 | 0.658 | 0.847 | 0.408 | 0.861 | 2.36 | 0.831
0.033 µg/ml, genetic background: ΔsoxS | 1.84 | 1.53 | 2.4 | 2.44 | 2.34 | 2.48 | 2.37 | 2.42
0.065 µg/ml, genetic background: wild type | 0.0229 | -0.454 | 0.0729 | -0.000943 | -0.00847 | 0.0821 | 0.0515 | 0.09385
0.065 µg/ml, genetic background: ΔmarA | -0.0861 | -0.0467 | 0.0079 | -0.0717 | -0.0986 | -0.00582 | -0.0387 | -0.00998
0.065 µg/ml, genetic background: Δrob | -0.306 | -0.00874 | 0.0341 | -0.0463 | -0.0778 | 0.0467 | 0.0459 | -0.0415
0.065 µg/ml, genetic background: ΔsoxS | 0.0743 | 0.00471 | 0.113 | -0.0317 | 0.0535 | -0.0365 | -0.0421 | -0.0618
